The supplement of paper PMC6078165

System: MDAMB468
Assay: relative JC-1 red fluorescence (viability) vs pre-drug, coculture with fibroblast (fraction); higher = more viable cancer cells
Protocol: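 JC-1 labelled TNBC cells cocultured 1:1 (1,500 cells each) with CellTrace Violet stained primary or stromal fibroblasts in 384-well plates in FluoroBrite medium, treated with one of 42 anticancer drugs at 0.1, 1, 10 or 100 uM. JC-1 red fluorescence (mitochondrial integrity in cancer cells only) was read by plate reader every 8 h for 72 h. Values are normalised to each well's pre-drug value. The stock of one drug was tenfold lower, so its dose labels may be too high.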

C[C@]12CC[C@@H]3c4ccc(O)cc4C[C@@H](CCCCCCCCC[S+]([O-])CCCC(F)(F)C(F)(F)F)[C@H]3[C@@H]1CC[C@@H]2O (stereo partly drawn) [Fulvestrant]
relative JC-1 red fluorescence
Settings | 8 h | 16 h | 24 h | 32 h | 40 h | 48 h | 56 h | 64 h | 72 h
0.1 µM, coculture fibroblast: C12385 | 0.88141 ± 8.7e-05 | 0.834 ± 0.019 | 0.788 ± 0.026 | 0.72 ± 0.02 | 0.675 ± 0.019 | 0.656 ± 0.016 | 0.6112 ± 0.0026 | 0.576 ± 0.0067 | 0.557 ± 0.011
0.1 µM, coculture fibroblast: H6013 | 0.882 ± 0.012 | 0.829 ± 0.018 | 0.806 ± 0.018 | 0.8 ± 0.037 | 0.765 ± 0.045 | 0.765 ± 0.05 | 0.738 ± 0.051 | 0.716 ± 0.049 | 0.671 ± 0.049
0.1 µM, coculture fibroblast: H6019 | 0.8347 ± 0.0009 | 0.776 ± 0.022 | 0.749 ± 0.046 | 0.699 ± 0.055 | 0.662 ± 0.066 | 0.656 ± 0.086 | 0.602 ± 0.082 | 0.573 ± 0.079 | 0.546 ± 0.075
0.1 µM, coculture fibroblast: H6076 | 0.951 ± 0.018 | 0.927 ± 0.046 | 0.887 ± 0.013 | 0.904 ± 0.015 | 0.84 ± 0.03 | 0.842 ± 0.039 | 0.808 ± 0.063 | 0.789 ± 0.068 | 0.864 ± 0.092
0.1 µM, coculture fibroblast: H6231 | 0.846 ± 0.017 | 0.958 ± 0.026 | 0.868 ± 0.058 | 0.848 ± 0.063 | 0.798 ± 0.072 | 0.768 ± 0.058 | 0.713 ± 0.046 | 0.673 ± 0.036 | 0.655 ± 0.041
0.1 µM, coculture fibroblast: HADF | 0.9041 ± 0.0054 | 0.8704 ± 0.0018 | 0.825 ± 0.012 | 0.806 ± 0.011 | 0.75 ± 0.0068 | 0.7398 ± 0.0014 | 0.7014 ± 0.00087 | 0.6875 ± 0.0062 | 0.647 ± 0.014
0.1 µM, coculture fibroblast: HCFa | 0.8663 ± 0.0022 | 0.783 ± 0.0079 | 0.7627 ± 0.0072 | 0.754 ± 0.016 | 0.69 ± 0.021 | 0.681 ± 0.032 | 0.633 ± 0.028 | 0.595 ± 0.028 | 0.537 ± 0.023
0.1 µM, coculture fibroblast: HCPF | 0.873 ± 0.02 | 0.842 ± 0.15 | 0.841 ± 0.016 | 0.819 ± 0.0098 | 0.75 ± 0.018 | 0.713 ± 0.016 | 0.654 ± 0.023 | 0.641 ± 0.021 | 0.623 ± 0.03
0.1 µM, coculture fibroblast: HHSteC | 0.9142 ± 0.0089 | 0.8579 ± 0.0062 | 0.82 ± 0.0016 | 0.792 ± 0.012 | 0.739 ± 0.011 | 0.743 ± 0.014 | 0.68 ± 0.02 | 0.652 ± 0.02 | 0.602 ± 0.018
0.1 µM, coculture fibroblast: HMF | 0.8509 ± 0.0057 | 0.918 ± 0.019 | 0.851 ± 0.02 | 0.862 ± 0.011 | 0.792 ± 0.024 | 0.786 ± 0.015 | 0.743 ± 0.017 | 0.728 ± 0.0094 | 0.7259 ± 0.0052
0.1 µM, coculture fibroblast: HPFa | 0.92889 ± 0.00073 | 0.9099 ± 0.0034 | 0.83 ± 0.018 | 0.7795 ± 0.0021 | 0.725 ± 0.0098 | 0.71 ± 0.007 | 0.6335 ± 0.0039 | 0.601 ± 0.011 | 0.5238 ± 0.0052
0.1 µM, coculture fibroblast: HUF | 0.8927 ± 0.0021 | 0.819 ± 0.015 | 0.741 ± 0.017 | 0.67 ± 0.014 | 0.616 ± 0.01 | 0.588 ± 0.0069 | 0.539 ± 0.006 | 0.51 ± 0.0026 | 0.487 ± 0.01
0.1 µM, coculture fibroblast: Hs5 | 0.802 ± 0.058 | 0.914 ± 0.083 | 0.939 ± 0.019 | 0.921 ± 0.02 | 0.846 ± 0.0085 | 0.811 ± 0.015 | 0.769 ± 0.012 | 0.7293 ± 0.0061 | 0.749 ± 0.015
0.1 µM, coculture fibroblast: Hs27A | 0.855 ± 0.018 | 0.784 ± 0.034 | 0.769 ± 0.042 | 0.772 ± 0.055 | 0.714 ± 0.068 | 0.703 ± 0.068 | 0.672 ± 0.081 | 0.652 ± 0.087 | 0.615 ± 0.092
0.1 µM, coculture fibroblast: Hs343T | 0.905 ± 0.015 | 0.955 ± 0.015 | 0.883 ± 0.032 | 0.8802 ± 0.0072 | 0.8 ± 0.014 | 0.788 ± 0.043 | 0.745 ± 0.07 | 0.743 ± 0.081 | 0.739 ± 0.1
0.1 µM, coculture fibroblast: WS1 | 0.894 ± 0.013 | 0.8303 ± 0.0036 | 0.77 ± 0.01 | 0.69 ± 0.018 | 0.641 ± 0.018 | 0.603 ± 0.036 | 0.568 ± 0.05 | 0.535 ± 0.068 | 0.524 ± 0.078
1 µM, coculture fibroblast: C12385 | 0.8735 ± 0.0041 | 0.8461 ± 0.0067 | 0.8438 ± 0.0011 | 0.799 ± 0.0061 | 0.757 ± 0.026 | 0.763 ± 0.019 | 0.734 ± 0.034 | 0.728 ± 0.044 | 0.718 ± 0.053
1 µM, coculture fibroblast: H6013 | 0.8572 ± 0.0012 | 0.8526 ± 0.0016 | 0.818 ± 0.012 | 0.818 ± 0.025 | 0.794 ± 0.036 | 0.8 ± 0.044 | 0.769 ± 0.05 | 0.762 ± 0.061 | 0.712 ± 0.053
1 µM, coculture fibroblast: H6019 | 0.8065 ± 0.0024 | 0.8055 ± 0.0033 | 0.78524 ± 0.00029 | 0.7425 ± 0.00091 | 0.7045 ± 0.0037 | 0.696 ± 0.0037 | 0.656 ± 0.016 | 0.625 ± 0.018 | 0.596 ± 0.022
1 µM, coculture fibroblast: H6076 | 0.89 ± 0.014 | 0.8636 ± 0.0073 | 0.867 ± 0.016 | 0.894 ± 0.036 | 0.82 ± 0.034 | 0.829 ± 0.046 | 0.813 ± 0.055 | 0.813 ± 0.05 | 0.875 ± 0.069
1 µM, coculture fibroblast: H6231 | 0.827 ± 0.0099 | 0.8602 ± 0.0058 | 0.821 ± 0.016 | 0.823 ± 0.029 | 0.762 ± 0.033 | 0.741 ± 0.032 | 0.694 ± 0.032 | 0.677 ± 0.03 | 0.68 ± 0.047
1 µM, coculture fibroblast: HADF | 0.87 ± 0.017 | 0.862 ± 0.019 | 0.803 ± 0.033 | 0.798 ± 0.031 | 0.758 ± 0.05 | 0.755 ± 0.056 | 0.718 ± 0.045 | 0.712 ± 0.054 | 0.677 ± 0.059
1 µM, coculture fibroblast: HCFa | 0.849 ± 0.014 | 0.84 ± 0.017 | 0.778 ± 0.013 | 0.753 ± 0.0099 | 0.6974 ± 0.0064 | 0.6992 ± 0.0022 | 0.6471 ± 0.00033 | 0.6087 ± 0.0025 | 0.555 ± 0.0096
1 µM, coculture fibroblast: HCPF | 0.8271 ± 0.0067 | 0.889 ± 0.051 | 0.828 ± 0.051 | 0.827 ± 0.042 | 0.754 ± 0.049 | 0.727 ± 0.052 | 0.683 ± 0.046 | 0.673 ± 0.044 | 0.669 ± 0.041
1 µM, coculture fibroblast: HHSteC | 0.8719 ± 0.0044 | 0.8544 ± 0.0066 | 0.81986 ± 0.00062 | 0.7911 ± 0.0014 | 0.755 ± 0.0098 | 0.7532 ± 0.0026 | 0.6928 ± 0.0025 | 0.6642 ± 0.0042 | 0.6294 ± 0.0025
1 µM, coculture fibroblast: HMF | 0.8327 ± 0.004 | 0.903 ± 0.026 | 0.855 ± 0.0088 | 0.825 ± 0.016 | 0.771 ± 0.026 | 0.761 ± 0.021 | 0.729 ± 0.021 | 0.713 ± 0.011 | 0.706 ± 0.018
1 µM, coculture fibroblast: HPFa | 0.9416 ± 0.0049 | 0.884 ± 0.013 | 0.848 ± 0.03 | 0.811 ± 0.026 | 0.7951 ± 0.007 | 0.792 ± 0.0095 | 0.712 ± 0.0077 | 0.683 ± 0.011 | 0.598 ± 0.013
1 µM, coculture fibroblast: HUF | 0.872 ± 0.03 | 0.812 ± 0.031 | 0.777 ± 0.047 | 0.71 ± 0.046 | 0.669 ± 0.054 | 0.658 ± 0.056 | 0.603 ± 0.059 | 0.587 ± 0.066 | 0.569 ± 0.06
1 µM, coculture fibroblast: Hs5 | 0.9384 ± 0.0036 | 0.9011 ± 0.0029 | 0.887 ± 0.015 | 0.875 ± 0.031 | 0.807 ± 0.043 | 0.789 ± 0.047 | 0.766 ± 0.062 | 0.736 ± 0.057 | 0.76 ± 0.074
1 µM, coculture fibroblast: Hs27A | 0.845 ± 0.021 | 0.826 ± 0.029 | 0.751 ± 0.046 | 0.747 ± 0.054 | 0.689 ± 0.062 | 0.676 ± 0.073 | 0.63 ± 0.068 | 0.602 ± 0.066 | 0.564 ± 0.066
1 µM, coculture fibroblast: Hs343T | 0.867 ± 0.018 | 0.871 ± 0.053 | 0.82 ± 0.035 | 0.797 ± 0.037 | 0.723 ± 0.046 | 0.71 ± 0.025 | 0.681 ± 0.025 | 0.664 ± 0.02 | 0.663 ± 0.014
1 µM, coculture fibroblast: WS1 | 0.8534 ± 0.0021 | 0.825 ± 0.033 | 0.793 ± 0.025 | 0.741 ± 0.02 | 0.707 ± 0.026 | 0.685 ± 0.017 | 0.661 ± 0.016 | 0.6443 ± 0.0027 | 0.637 ± 0.017

± gives the standard deviation of the averaged measurements. Values are relative to the signal before dosing, not to a vehicle control; the signal also falls without drug.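 Labels refer to human fibroblasts, largely primary: uterine (C12385, HUF), lung (H6013), bone (Hs27A), adrenal (HADF), skin (WS1), plus mammary HMF and breast cancer-associated Hs343T. Cancer lines are basal-like or mesenchymal-like triple-negative breast cancer. The paper counts as hits responses shifting over 3x the replicate standard deviation. The tissue of the other fibroblasts is not given here.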
